# Measured values from the supplement of paper PMC8728848.
# The other results are listed elsewhere or left out.
# Experiments:
# Assay in all cases: glycan array binding signal (z-score within array); higher = stronger binding
# Conditions in all cases: glycan notation: IUPAC condensed, linker removed
# [1] = biological target: Neu5Ac(a2-6)Gal(b1-4)GlcNAc
# Procedure, shortened: (§1)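 Glycan array data came from 3228 arrays in the Consortium for Functional Glycomics database, and only arrays with an available protein sequence were kept. Glycan names were put into IUPAC-condensed notation, and columns mapping to the same glycan were averaged. The binding signal is a within-array Z-score, averaged across arrays of one protein sequence run at different concentrations or buffers and across linkers. A negative Z-score can be read as non-binding.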
# [2] = biological target: Neu5Ac(a2-6)Gal(b1-4)GlcNAc(b1-2)Man(a1-3)[Gal(b1-4)GlcNAc(b1-2)Man(a1-6)]Man(b1-4)GlcNAc(b1-4)GlcNAc
# Procedure, shortened: as §1
# [3] = biological target: Neu5Ac(a2-6)Gal(b1-4)GlcNAc(b1-2)Man(a1-3)[GlcNAc(b1-2)Man(a1-6)]Man(b1-4)GlcNAc(b1-4)GlcNAc
# Procedure, shortened: as §1
# [4] = biological target: Neu5Ac(a2-6)Gal(b1-4)GlcNAc(b1-2)Man(a1-3)[GlcNAc(b1-2)Man(b1-4)GlcNAc(b1-2)Man(a1-6)]Man(b1-4)GlcNAc(b1-4)GlcNAc
# Procedure, shortened: as §1
# [5] = biological target: Neu5Ac(a2-6)Gal(b1-4)GlcNAc(b1-2)Man(a1-3)[Neu5Ac(a2-6)Gal(b1-4)GlcNAc(b1-2)Man(a1-6)]Man(b1-4)GlcNAc(b1-4)GlcNAc
# Procedure, shortened: as §1
# [6] = biological target: Neu5Ac(a2-6)Gal(b1-4)GlcNAc(b1-2)Man(a1-6)[Gal(b1-4)GlcNAc(b1-2)Man(a1-3)]Man(b1-4)GlcNAc(b1-4)GlcNAc
# Procedure, shortened: as §1
# [7] = biological target: Neu5Ac(a2-6)Gal(b1-4)GlcNAc(b1-2)Man(a1-6)[GlcNAc(b1-2)Man(a1-3)]Man(b1-4)GlcNAc(b1-4)GlcNAc
# Procedure, shortened: as §1
# [8] = biological target: Neu5Ac(a2-6)Gal(b1-4)GlcNAc(b1-3)Gal(b1-4)GlcNAc
# Procedure, shortened: as §1
# [9] = biological target: Neu5Ac(a2-6)Gal(b1-4)GlcNAc(b1-3)Gal(b1-4)[Fuc(a1-3)]GlcNAc(b1-3)Gal(b1-4)[Fuc(a1-3)]GlcNAc
# Procedure, shortened: as §1
# [10] = biological target: Neu5Ac(a2-6)Gal(b1-4)GlcNAc6S
# Procedure, shortened: as §1
# Neu5Ac(a2-6)GalNAc = biological target: Neu5Ac(a2-6)GalNAc
# Procedure, shortened: as §1
# [11] = biological target: Neu5Ac(a2-6)GalNAc(b1-4)GlcNAc
# Procedure, shortened: as §1
# Neu5Ac(a2-8)Neu5Ac = biological target: Neu5Ac(a2-8)Neu5Ac
# Procedure, shortened: as §1
# [12] = biological target: Neu5Ac(a2-8)Neu5Ac(a2-3)Gal(b1-4)Glc
# Procedure, shortened: as §1
# [13] = biological target: Neu5Ac(a2-8)Neu5Ac(a2-3)[GalNAc(b1-4)]Gal(b1-4)Glc
# Procedure, shortened: as §1
# [14] = biological target: Neu5Ac(a2-8)Neu5Ac(a2-8)Neu5Ac
# Procedure, shortened: as §1
# [15] = biological target: Neu5Ac(a2-8)Neu5Ac(a2-8)Neu5Ac(a2-3)Gal(b1-4)Glc
# Procedure, shortened: as §1
# [16] = biological target: Neu5Ac(a2-8)Neu5Ac(a2-8)Neu5Ac(a2-3)[GalNAc(b1-4)]Gal(b1-4)Glc
# Procedure, shortened: as §1
# [17] = biological target: Neu5Ac(a2-8)Neu5Ac(a2-8)Neu5Ac(a2-8)Neu5Ac(a2-3)[GalNAc(b1-4)]Gal(b1-4)Glc
# Procedure, shortened: as §1
# [18] = biological target: Neu5Ac(b2-6)Gal(b1-4)GlcNAc
# Procedure, shortened: as §1
# Neu5Ac(b2-6)GalNAc = biological target: Neu5Ac(b2-6)GalNAc
# Procedure, shortened: as §1
# [19] = biological target: Neu5Ac9Ac(a2-6)Gal(b1-4)GlcNAc
# Procedure, shortened: as §1
# [20] = biological target: Neu5Gc(a2-3)Gal(b1-3)GlcNAc
# Procedure, shortened: as §1
# [21] = biological target: Neu5Gc(a2-3)Gal(b1-3)[Fuc(a1-4)]GlcNAc
# Procedure, shortened: as §1
# Neu5Gc(a2-3)Gal(b1-4)Glc = biological target: Neu5Gc(a2-3)Gal(b1-4)Glc
# Procedure, shortened: as §1
# [22] = biological target: Neu5Gc(a2-3)Gal(b1-4)GlcNAc
# Procedure, shortened: as §1
# [23] = biological target: Neu5Gc(a2-3)Gal(b1-4)[Fuc(a1-3)]GlcNAc
# Procedure, shortened: as §1
# [24] = biological target: Neu5Gc(a2-6)Gal(b1-4)GlcNAc
# Procedure, shortened: as §1
# Neu5Gc(a2-6)GalNAc = biological target: Neu5Gc(a2-6)GalNAc
# Procedure, shortened: as §1
# [25] = biological target: Neu5Gc(b2-6)Gal(b1-4)GlcNAc
# Procedure, shortened: as §1
binder,measurement,setting,value
"TbCVNHOa (Tuber borchii), Q5MK11 (protein) MSYADSSRNAVLTNGGRTLRAECRNADGNWVTSELDLDTCIGNPNGFLGWGMQNFSHSSEDIKLEEGGRKLTCRPKTVDGGFRERQGIDLNRIQNVNGRLVFQ",glycan array binding signal (z-score),[1],-0.183
same,glycan array binding signal (z-score),[2],-0.618
same,glycan array binding signal (z-score),[3],-0.047
same,glycan array binding signal (z-score),[4],-0.081
same,glycan array binding signal (z-score),[5],-0.053
same,glycan array binding signal (z-score),[6],-0.096
same,glycan array binding signal (z-score),[7],-0.034
same,glycan array binding signal (z-score),[8],0.248
same,glycan array binding signal (z-score),[9],-0.158
same,glycan array binding signal (z-score),[10],0.106
same,glycan array binding signal (z-score),Neu5Ac(a2-6)GalNAc,0.021
same,glycan array binding signal (z-score),[11],-0.446
same,glycan array binding signal (z-score),Neu5Ac(a2-8)Neu5Ac,-0.17
same,glycan array binding signal (z-score),[12],-0.474
same,glycan array binding signal (z-score),[13],0.105
same,glycan array binding signal (z-score),[14],-0.426
same,glycan array binding signal (z-score),[15],-0.172
same,glycan array binding signal (z-score),[16],-0.386
same,glycan array binding signal (z-score),[17],-0.338
same,glycan array binding signal (z-score),[18],-0.338
same,glycan array binding signal (z-score),Neu5Ac(b2-6)GalNAc,-0.632
same,glycan array binding signal (z-score),[19],0.221
same,glycan array binding signal (z-score),[20],-0.403
same,glycan array binding signal (z-score),[21],-0.163
same,glycan array binding signal (z-score),Neu5Gc(a2-3)Gal(b1-4)Glc,0.245
same,glycan array binding signal (z-score),[22],0.05
same,glycan array binding signal (z-score),[23],-0.57
same,glycan array binding signal (z-score),[24],-0.39
same,glycan array binding signal (z-score),Neu5Gc(a2-6)GalNAc,-0.127
same,glycan array binding signal (z-score),[25],0.22

# A section from the list above:
binder,measurement,setting,value
"TbCVNHOa (Tuber borchii), Q5MK11 (protein) MSYADSSRNAVLTNGGRTLRAECRNADGNWVTSELDLDTCIGNPNGFLGWGMQNFSHSSEDIKLEEGGRKLTCRPKTVDGGFRERQGIDLNRIQNVNGRLVFQ",glycan array binding signal (z-score),[2],-0.618
same,glycan array binding signal (z-score),[3],-0.047
